Values of other authors as cited in patent publication US12291505B2, “Methods for the synthesis of deuterated dextromethorphan” (AVANIR PHARMACEUTICALS, INC., priority 2016, dated 2025).
Some entries share one result that the patent states for a list of compounds.

Amino acid sequences for entries named in this document (tags omitted).
UniProt P10635, whole entry: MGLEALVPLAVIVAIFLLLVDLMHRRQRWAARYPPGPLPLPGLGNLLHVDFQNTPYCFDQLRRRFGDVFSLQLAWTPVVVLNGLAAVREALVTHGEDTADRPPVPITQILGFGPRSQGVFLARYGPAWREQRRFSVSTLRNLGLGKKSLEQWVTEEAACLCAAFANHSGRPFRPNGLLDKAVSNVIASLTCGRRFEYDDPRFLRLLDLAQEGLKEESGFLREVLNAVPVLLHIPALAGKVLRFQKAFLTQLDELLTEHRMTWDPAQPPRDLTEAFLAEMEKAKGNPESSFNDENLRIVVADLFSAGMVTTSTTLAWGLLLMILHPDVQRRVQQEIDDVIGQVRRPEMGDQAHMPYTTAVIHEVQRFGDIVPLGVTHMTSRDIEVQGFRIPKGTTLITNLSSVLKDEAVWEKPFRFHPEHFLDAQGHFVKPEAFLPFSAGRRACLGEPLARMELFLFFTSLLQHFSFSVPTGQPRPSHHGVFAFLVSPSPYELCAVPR

Biological target: CYP2D6 (Homo sapiens, UniProt P10635)
Conditions: read-out: Ki value (Michaelis-Menton inhibition value), CYP2D6; upper bound stated for the list of inhibitors

| SMILES | Ki |
| --- | --- |
| CC[C@H]1[C@@H]2C[C@H]3[C@@H]4N(C)c5ccccc5[C@]45C[C@@H]([C@H]2[C@H]5O)N3[C@@H]1O [ajmaline] | ≤ 50 µM |
| CC(CCc1ccccc1)NCC(O)c1ccc(O)c(C(N)=O)c1 (stereo not shown) [labetalol] | ≤ 50 µM |
| CN1[C@@H](CC(=O)c2ccccc2)CCC[C@H]1C[C@H](O)c1ccccc1 [lobeline] | ≤ 50 µM |
| COc1ccc(Cc2nccc3cc(OC)c(OC)cc23)cc1OC [papaverine] | ≤ 50 µM |
